Results deposited as PubChem BioAssay AID743121 (NCATS, 2013)
The deposit covers about 26,000 reagents; shown is a random part of them. Of all reagents, 167 (0.63%) were called active. 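Calls are per gene from RSA p-values that are not deposited; an individual active-marked siRNA can sensitise only weakly.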 Unmarked entries are inactive. The numbers tell different reagents against one gene apart. Not all columns of the deposit are shown. Reagent sequences are not shown.

Test: 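Genes whose silencing strengthens cell killing by camptothecin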 (primary screen)
Cell system: MDA-MB-231 cells, a human breast cancer line
Reagents: single siRNA against human genes, 20 nM siRNA (0.8 pmol per well)
Duration: 120 h (drug added 48 h after transfection, read 72 h later)
Conditions: camptothecin 20 nM (about EC30) for 72 h; vehicle 0.1% DMSO in parallel plates
Detection: 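Cell viability by ATP luminescence (CellTiter-Glo) as % of non-targeting siRNA wells, and the log2 ratio of viability without drug over viability with camptothecin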
Direction: log2 vehicle/camptothecin viability: higher = stronger sensitisation to camptothecin
Active means: 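Active genes have an RSA gene-level p-value below 0.001, computed from the ratios of their separate siRNAs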

The opening 3 entries, to show the layout:
{"gene symbol":"KRT8 (keratin 8)","reagent no.":1,"log2 vehicle/camptothecin viability":-0.411}
{"gene symbol":"KRT8 (keratin 8)","reagent no.":2,"log2 vehicle/camptothecin viability":-0.0194}
{"gene symbol":"KRT8 (keratin 8)","reagent no.":3,"log2 vehicle/camptothecin viability":-0.309}

Main list, repeating the preview:
{"gene symbol":"KRT8 (keratin 8)","reagent no.":1,"log2 vehicle/camptothecin viability":-0.411}
{"gene symbol":"KRT8 (keratin 8)","reagent no.":2,"log2 vehicle/camptothecin viability":-0.0194}
{"gene symbol":"KRT8 (keratin 8)","reagent no.":3,"log2 vehicle/camptothecin viability":-0.309}
{"gene symbol":"MAP2K2 (mitogen-activated protein kinase kinase 2)","reagent no.":1,"log2 vehicle/camptothecin viability":0.123}
{"gene symbol":"MAP2K2 (mitogen-activated protein kinase kinase 2)","reagent no.":2,"log2 vehicle/camptothecin viability":-0.234}
{"gene symbol":"MAP2K2 (mitogen-activated protein kinase kinase 2)","reagent no.":3,"log2 vehicle/camptothecin viability":-0.195}
{"gene symbol":"MAP2K2 (mitogen-activated protein kinase kinase 2)","reagent no.":4,"log2 vehicle/camptothecin viability":-0.0576}
{"gene symbol":"MAP2K2 (mitogen-activated protein kinase kinase 2)","reagent no.":5,"log2 vehicle/camptothecin viability":0.00141}
{"gene symbol":"MAP2K2 (mitogen-activated protein kinase kinase 2)","reagent no.":6,"log2 vehicle/camptothecin viability":-0.295}
{"gene symbol":"MAP2K2 (mitogen-activated protein kinase kinase 2)","reagent no.":7,"log2 vehicle/camptothecin viability":-0.321}
{"gene symbol":"MAP2K2 (mitogen-activated protein kinase kinase 2)","reagent no.":8,"log2 vehicle/camptothecin viability":-0.475}
{"gene symbol":"PGLYRP2 (peptidoglycan recognition protein 2)","reagent no.":1,"log2 vehicle/camptothecin viability":-0.0835}
{"gene symbol":"PGLYRP2 (peptidoglycan recognition protein 2)","reagent no.":2,"log2 vehicle/camptothecin viability":-0.513}
{"gene symbol":"PGLYRP2 (peptidoglycan recognition protein 2)","reagent no.":3,"log2 vehicle/camptothecin viability":0.472}
{"gene symbol":"PGLYRP2 (peptidoglycan recognition protein 2)","reagent no.":4,"log2 vehicle/camptothecin viability":-1.1}
{"gene symbol":"BMX (BMX non-receptor tyrosine kinase)","reagent no.":1,"log2 vehicle/camptothecin viability":-0.568}
{"gene symbol":"BMX (BMX non-receptor tyrosine kinase)","reagent no.":2,"log2 vehicle/camptothecin viability":-0.412}
{"gene symbol":"BMX (BMX non-receptor tyrosine kinase)","reagent no.":3,"log2 vehicle/camptothecin viability":0.445}
{"gene symbol":"BMX (BMX non-receptor tyrosine kinase)","reagent no.":4,"log2 vehicle/camptothecin viability":-0.168}
{"gene symbol":"FNTB (farnesyltransferase, CAAX box, subunit beta)","reagent no.":1,"log2 vehicle/camptothecin viability":0.38}
{"gene symbol":"FNTB (farnesyltransferase, CAAX box, subunit beta)","reagent no.":2,"log2 vehicle/camptothecin viability":-0.103}
{"gene symbol":"FNTB (farnesyltransferase, CAAX box, subunit beta)","reagent no.":3,"log2 vehicle/camptothecin viability":-0.107}
{"gene symbol":"FNTB (farnesyltransferase, CAAX box, subunit beta)","reagent no.":4,"log2 vehicle/camptothecin viability":-0.316}
{"gene symbol":"WIF1 (Wnt inhibitory factor 1)","reagent no.":1,"log2 vehicle/camptothecin viability":0.191}
{"gene symbol":"WIF1 (Wnt inhibitory factor 1)","reagent no.":2,"log2 vehicle/camptothecin viability":-0.198}
{"gene symbol":"WIF1 (Wnt inhibitory factor 1)","reagent no.":3,"log2 vehicle/camptothecin viability":0.149}
{"gene symbol":"WIF1 (Wnt inhibitory factor 1)","reagent no.":4,"log2 vehicle/camptothecin viability":-0.19}
